Reference: paper PMC8067709, “Crystal Structure of the Epo1-Bem3 Complex for Bud Growth” (International Journal of Molecular Sciences, 2021)
Results are given in words; binding and its absence hold for the method and conditions named. Where a sequence is shown, tags or fusion partners need not be part of it.

Tests used:
[1] = target: T1, Scs2-Msp (1-128), N-His (Saccharomyces cerevisiae) (UniProt P40075); test: NMR titration; 1H-15N HSQC of 0.5 mM 15N-labeled Scs2-Msp (1-128) without and with unlabeled partner at molar ratios 1:5 and 1:10; 800 MHz, 303 K; both purified
T1 sequence (chain, RED-tris-NTA fluorescent dye label (MST); 15N-labeled (NMR)): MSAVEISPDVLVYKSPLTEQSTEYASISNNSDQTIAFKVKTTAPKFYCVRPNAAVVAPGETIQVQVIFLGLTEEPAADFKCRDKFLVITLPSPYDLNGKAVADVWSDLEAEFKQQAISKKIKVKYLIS

[2] = target: T1, Scs2-Msp (1-128), N-His (Saccharomyces cerevisiae); test: MST; Monolith NT.115; RED-tris-NTA labeled N-His Scs2-Msp (100 nM) with a serial dilution of Epo1, Bem3 or EB complex from 2 mM; 20 mM Tris-HCl pH 8.0, 150 mM NaCl, 4 mM MgCl2, 0.05% Tween 20; both purified

B1: Bem3^CC1 (1-99) with 6xHis tag, isolated protein (domain or fragment, Saccharomyces cerevisiae, UniProt P32873 1-99, looked up)
chain: MTDNLTTTHGGSTTLELLAQYNDHRSKKDKSIEHIEKGTCSGKERNPSYDEIFTENIKLKLQVQEYETEIESLEKVIDMLQKNREASLEVVLEQVQNDS
notes: Bem3, Saccharomyces cerevisiae, residues 1-99 (CC1 domain); Dimer in solution by MALS; theoretical molecular mass printed as 11.39 kDa; also called N-His-unlabeled Bem3^CC1; wild-type (wt) Bem3^CC1; source: pET-22b construct, purified (Hitrap Q ion-exchange); not shown: 6xHis, N-terminal, kept
- binding [1]: no binding (tested: molar ratio of 1:10 to 0.5 mM Scs2-Msp)
- binding [2]: no binding (tested: 2 mM)
